# Test results reported in the supplement of paper PMC8728848.
# This is one part of the list.
# B1: Clone646PsrP (Streptococcus pneumoniae) (protein)
# chain: MDHHHHHHHHASENLYFQGAPAINASLNIAKSETKVYTGEGVDSVYRVPIYYKLKVTNDGSKLTFTYTVTYVNPKTNDLGNISSMRPGYSIYNSGTSTQTMLTLGSDLGKPSGVKNYITDKNGRQVLSYNTSTMTTQGSGYTWGNGAQMNGFFAKKGYGLTSSWTVPITGTDTSFTFTPYAARTDRIGINYFNGGGKVVESSTTSQSLSQSKSLSVSAS
# Experiments:
# Test in all cases: glycan array binding signal (z-score within array); higher = stronger binding
# Conditions in all cases: glycan notation: IUPAC condensed, linker removed
# [1] = target: Gal(b1-3)GlcNAc(b1-2)Man(a1-3)[Gal(b1-3)GlcNAc(b1-2)Man(a1-6)]Man(b1-4)GlcNAc(b1-4)[Fuc(a1-6)]GlcNAc
# How it was run: (§1)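 Glycan array binding is given as a within-array Z-score, which can be read as non-binding when negative. The arrays, 3228 of them, came from the Consortium for Functional Glycomics database and were retained only where the protein sequence was available. Z-scores were averaged across arrays of the same protein sequence at different concentrations or buffers and across linkers.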
# [2] = target: Gal(b1-3)GlcNAc(b1-2)Man(a1-3)[GlcNAc(b1-4)][Gal(b1-3)GlcNAc(b1-2)Man(a1-6)]Man(b1-4)GlcNAc(b1-4)GlcNAc
# How it was run: as §1
# [3] = target: Gal(b1-3)GlcNAc(b1-2)[Gal(b1-3)GlcNAc(b1-6)]Man(a1-6)[Gal(b1-3)GlcNAc(b1-2)Man(a1-3)]Man(b1-4)GlcNAc(b1-4)GlcNAc
# How it was run: as §1
# [4] = target: Gal(b1-3)GlcNAc(b1-3)Gal(b1-3)GlcNAc
# How it was run: as §1
# [5] = target: Gal(b1-3)GlcNAc(b1-3)Gal(b1-4)Glc
# How it was run: as §1
# [6] = target: Gal(b1-3)GlcNAc(b1-3)Gal(b1-4)GlcNAc
# How it was run: as §1
# [7] = target: Gal(b1-3)GlcNAc(b1-3)Gal(b1-4)GlcNAc(b1-2)Man(a1-3)[Gal(b1-3)GlcNAc(b1-3)Gal(b1-4)GlcNAc(b1-2)Man(a1-6)]Man(b1-4)GlcNAc(b1-4)GlcNAc
# How it was run: as §1
# [8] = target: Gal(b1-3)GlcNAc(b1-3)Gal(b1-4)GlcNAc(b1-2)[Gal(b1-3)GlcNAc(b1-3)Gal(b1-4)GlcNAc(b1-6)]Man(a1-6)[Gal(b1-3)GlcNAc(b1-3)Gal(b1-4)GlcNAc(b1-2)Man(a1-3)]Man(b1-4)GlcNAc(b1-4)[Fuc(a1-6)]GlcNAc
# How it was run: as §1
# [9] = target: Gal(b1-3)GlcNAc(b1-3)Gal(b1-4)GlcNAc(b1-3)Gal(b1-4)GlcNAc(b1-2)[Gal(b1-3)GlcNAc(b1-3)Gal(b1-4)GlcNAc(b1-3)Gal(b1-4)GlcNAc(b1-6)]Man(a1-6)[Gal(b1-3)GlcNAc(b1-3)Gal(b1-4)GlcNAc(b1-3)Gal(b1-4)GlcNAc(b1-2)Man(a1-3)]Man(b1-4)GlcNAc(b1-4)[Fuc(a1-6)]GlcNAc
# How it was run: as §1
# [10] = target: Gal(b1-3)GlcNAc(b1-3)Gal(b1-4)GlcNAc(b1-6)[Gal(b1-3)GlcNAc(b1-3)]Gal(b1-4)Glc
# How it was run: as §1
# [11] = target: Gal(b1-3)GlcNAc(b1-3)Gal(b1-4)[Fuc(a1-3)]GlcNAc
# How it was run: as §1
# [12] = target: Gal(b1-3)GlcNAc(b1-3)Gal(b1-4)[Fuc(a1-3)]GlcNAc(b1-6)[Gal(b1-3)GlcNAc(b1-3)]Gal(b1-4)Glc
# How it was run: as §1
# [13] = target: Gal(b1-3)GlcNAc(b1-3)GalNAc
# How it was run: as §1
# [14] = target: Gal(b1-3)GlcNAc(b1-6)Gal(b1-4)GlcNAc
# How it was run: as §1
# [15] = target: Gal(b1-3)GlcNAc(b1-6)GalNAc
# How it was run: as §1
# [16] = target: Gal(b1-3)GlcNAc(b1-6)[Gal(b1-3)]GalNAc
# How it was run: as §1
# Gal(b1-3)GlcNAc6S = target: Gal(b1-3)GlcNAc6S
# How it was run: as §1
# [17] = target: Gal(b1-3)[Fuc(a1-4)]GlcNAc
# How it was run: as §1
# [18] = target: Gal(b1-3)[Fuc(a1-4)]GlcNAc(b1-2)Man
# How it was run: as §1
# [19] = target: Gal(b1-3)[Fuc(a1-4)]GlcNAc(b1-2)Man(a1-3)[Gal(b1-3)[Fuc(a1-4)]GlcNAc(b1-2)Man(a1-6)]Man(b1-4)GlcNAc(b1-4)[Fuc(a1-6)]GlcNAc
# How it was run: as §1
# [20] = target: Gal(b1-3)[Fuc(a1-4)]GlcNAc(b1-3)Gal(b1-3)[Fuc(a1-4)]GlcNAc
# How it was run: as §1
# [21] = target: Gal(b1-3)[Fuc(a1-4)]GlcNAc(b1-3)Gal(b1-4)[Fuc(a1-3)]GlcNAc
# How it was run: as §1
# [22] = target: Gal(b1-3)[Fuc(a1-4)]GlcNAc(b1-6)GalNAc
# How it was run: as §1
# [23] = target: Gal(b1-3)[GlcNAc(b1-6)]GalNAc
# How it was run: as §1
# [24] = target: Gal(b1-3)[Neu5Ac(a2-6)]GalNAc
# How it was run: as §1
# [25] = target: Gal(b1-3)[Neu5Ac(a2-6)]GlcNAc(b1-4)Gal(b1-4)Glc
# How it was run: as §1
# [26] = target: Gal(b1-3)[Neu5Ac(b2-6)]GalNAc
# How it was run: as §1
# Gal(b1-4)Gal = target: Gal(b1-4)Gal
# How it was run: as §1
# [27] = target: Gal(b1-4)GalNAc(a1-3)[Fuc(a1-2)]Gal(b1-4)GlcNAc
# How it was run: as §1
# [28] = target: Gal(b1-4)GalNAc(b1-3)[Fuc(a1-2)]Gal(b1-4)GlcNAc
# How it was run: as §1
# Gal(b1-4)Glc = target: Gal(b1-4)Glc
# How it was run: as §1
# Gal(b1-4)Glc6S = target: Gal(b1-4)Glc6S
# How it was run: as §1
# Gal(b1-4)GlcNAc = target: Gal(b1-4)GlcNAc
# How it was run: as §1
# [29] = target: Gal(b1-4)GlcNAc(a1-6)Gal(b1-4)GlcNAc
# How it was run: as §1
# Gal(b1-4)GlcNAc(b1-2)Man = target: Gal(b1-4)GlcNAc(b1-2)Man
# How it was run: as §1
# [30] = target: Gal(b1-4)GlcNAc(b1-2)Man(a1-3)Man(b1-4)GlcNAc(b1-4)GlcNAc
# How it was run: as §1
# [31] = target: Gal(b1-4)GlcNAc(b1-2)Man(a1-3)[Gal(b1-4)GlcNAc(b1-2)Man(a1-6)]Man(b1-4)GlcNAc(b1-4)GlcNAc
# How it was run: as §1
# [32] = target: Gal(b1-4)GlcNAc(b1-2)Man(a1-3)[Gal(b1-4)GlcNAc(b1-2)Man(a1-6)]Man(b1-4)GlcNAc(b1-4)[Fuc(a1-6)]GlcNAc
# How it was run: as §1
# [33] = target: Gal(b1-4)GlcNAc(b1-2)Man(a1-3)[Gal(b1-4)GlcNAc(b1-2)Man(a1-6)][Gal(b1-4)GlcNAc(b1-4)]Man(b1-4)GlcNAc(b1-4)[Fuc(a1-6)]GlcNAc
# How it was run: as §1
# [34] = target: Gal(b1-4)GlcNAc(b1-2)Man(a1-3)[Gal(b1-4)GlcNAc(b1-2)Man(a1-6)][GlcNAc(b1-4)]Man(b1-4)GlcNAc(b1-4)[Fuc(a1-6)]GlcNAc
# How it was run: as §1
# [35] = target: Gal(b1-4)GlcNAc(b1-2)Man(a1-3)[GlcNAc(b1-2)Man(a1-6)]Man(b1-4)GlcNAc(b1-4)GlcNAc
# How it was run: as §1
# [36] = target: Gal(b1-4)GlcNAc(b1-2)Man(a1-3)[GlcNAc(b1-4)][Gal(b1-4)GlcNAc(b1-2)Man(a1-6)]Man(b1-4)GlcNAc(b1-4)GlcNAc
# How it was run: as §1
# [37] = target: Gal(b1-4)GlcNAc(b1-2)Man(a1-3)[Man(a1-6)]Man(b1-4)GlcNAc(b1-4)GlcNAc
# How it was run: as §1
# [38] = target: Gal(b1-4)GlcNAc(b1-2)Man(a1-6)Man(b1-4)GlcNAc(b1-4)GlcNAc
# How it was run: as §1
# [39] = target: Gal(b1-4)GlcNAc(b1-2)Man(a1-6)[GlcNAc(b1-2)Man(a1-3)]Man(b1-4)GlcNAc(b1-4)GlcNAc
# How it was run: as §1
binder,measurement,setting,value
B1,glycan array binding signal (z-score),[1],-0.421
same,glycan array binding signal (z-score),[2],1.06
same,glycan array binding signal (z-score),[3],9.03
same,glycan array binding signal (z-score),[4],-0.113
same,glycan array binding signal (z-score),[5],-0.565
same,glycan array binding signal (z-score),[6],-0.659
same,glycan array binding signal (z-score),[7],-0.547
same,glycan array binding signal (z-score),[8],-0.74
same,glycan array binding signal (z-score),[9],-0.193
same,glycan array binding signal (z-score),[10],-0.795
same,glycan array binding signal (z-score),[11],-0.276
same,glycan array binding signal (z-score),[12],-0.749
same,glycan array binding signal (z-score),[13],-0.43
same,glycan array binding signal (z-score),[14],-0.402
same,glycan array binding signal (z-score),[15],-1.06
same,glycan array binding signal (z-score),[16],1.07
same,glycan array binding signal (z-score),Gal(b1-3)GlcNAc6S,-0.416
same,glycan array binding signal (z-score),[17],-0.031
same,glycan array binding signal (z-score),[18],-0.526
same,glycan array binding signal (z-score),[19],-0.087
same,glycan array binding signal (z-score),[20],-0.905
same,glycan array binding signal (z-score),[21],-0.797
same,glycan array binding signal (z-score),[22],-0.757
same,glycan array binding signal (z-score),[23],0.41
same,glycan array binding signal (z-score),[24],-0.596
same,glycan array binding signal (z-score),[25],-0.554
same,glycan array binding signal (z-score),[26],-0.931
same,glycan array binding signal (z-score),Gal(b1-4)Gal,-0.923
same,glycan array binding signal (z-score),[27],-0.706
same,glycan array binding signal (z-score),[28],-0.989
same,glycan array binding signal (z-score),Gal(b1-4)Glc,0.581
same,glycan array binding signal (z-score),Gal(b1-4)Glc6S,-0.138
same,glycan array binding signal (z-score),Gal(b1-4)GlcNAc,0.298
same,glycan array binding signal (z-score),[29],1.03
same,glycan array binding signal (z-score),Gal(b1-4)GlcNAc(b1-2)Man,1.82
same,glycan array binding signal (z-score),[30],-0.345
same,glycan array binding signal (z-score),[31],-0.528
same,glycan array binding signal (z-score),[32],-0.109
same,glycan array binding signal (z-score),[33],-0.785
same,glycan array binding signal (z-score),[34],-0.984
same,glycan array binding signal (z-score),[35],-0.502
same,glycan array binding signal (z-score),[36],-0.84
same,glycan array binding signal (z-score),[37],-0.156
same,glycan array binding signal (z-score),[38],-0.442
same,glycan array binding signal (z-score),[39],-0.281

# Reprinted at random: 2 entries already listed.
binder,measurement,setting,value
B1,glycan array binding signal (z-score),[23],0.41
same,glycan array binding signal (z-score),[14],-0.402
